Source: PubChem BioAssay AID1053208 (Peter MacCallum Cancer Centre, 2014)
In all, the deposit lists about 17,000 reagents; shown is an unselected part. 788 of them (4.7%) count as active. 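Calls rest on z-score classes alone; an extra cut-off of viability at most 70% of control was not applied to them.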 Unmarked entries are inactive. The numbers tell different reagents against one gene apart. Not all columns of the deposit are shown.

- Test: 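Synthetic lethal interactions between gene loss and doxorubicin in osteosarcoma cells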 (primary screen)
- Cells: mouse osteosarcoma cells, early-passage culture from an engineered mouse model of fibroblastic bone tumour
- Reagents: siRNA pool against mouse genes, 40 nM
- Timing: about 120 h (48 h before drug, then 72 h with drug)
- Treatment: doxorubicin 100 nM for 72 h, roughly 30-40% inhibitory dose
- Measured: 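Viability read as ATP luminescence after 72 h of 100 nM doxorubicin or none, duplicate wells averaged, scaled to non-targeting siRNA, then expressed as robust z-scores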
- Scale: viability z-score with doxorubicin: higher = more viable cells under doxorubicin; viability z-score without drug: higher = more viable cells with knock-down alone; z-score of drug to no-drug ratio: higher = less drug sensitisation by knock-down
- Hit rule: 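Called active if knock-down leaves viability unchanged without drug (z within -2 to 2) but lowers it with doxorubicin (z at or under -2)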

| Target gene | reagent | combined z-score class | viability z-score with doxorubicin | viability z-score without drug | z-score of drug to no-drug ratio |
| --- | --- | --- | --- | --- | --- |
| Sostdc1 (sclerostin domain containing 1) | 1 | no change with or without drug | 0 | -0.51 | 0.45 |
| Tapbp (TAP binding protein) | 1 | no change with or without drug | 0.45 | 0.84 | 0 |
| Sema6b | 1 | no change with or without drug | 0.9 | 0.51 | 0.67 |
| Zfp638 (zinc finger protein 638) | 1 | no change with or without drug | -1.46 | 0.17 | -1.57 |
| Tmem202 (transmembrane protein 202) | 1 | no change with or without drug | -1.01 | 1.85 | -2.02 |
| Tas2r139 (taste receptor, type 2, member 139) | 1 | no change with or without drug | -0.9 | 0.67 | -1.24 |
| Usp10 (ubiquitin specific peptidase 10) | 1 | no change with or without drug | 0.22 | 1.01 | -0.34 |
| Orm1 (orosomucoid 1) | 1 | high cell count with doxorubicin only | 2.36 | 0.51 | 2.14 |
| Top1mt (DNA topoisomerase 1, mitochondrial) | 1 | no change with or without drug | -1.24 | 0.84 | -1.69 |
| A530013C23Rik (RIKEN cDNA A530013C23 gene) | 1 | no change with or without drug | 0.22 | 0.17 | 0.22 |
| Tsc22d3 (TSC22 domain family, member 3) | 1 | no change with or without drug | -0.45 | 0.67 | -0.79 |
| Krit1 (KRIT1, ankyrin repeat containing) | 1 | no change with or without drug | 0.22 | -0.17 | 0.45 |
| Tmem25 (transmembrane protein 25) | 1 | no change with or without drug | 0.67 | -0.17 | 0.9 |
| Smyd2 (SET and MYND domain containing 2) | 1 | no change with or without drug | 0.67 | 0.67 | 0.34 |
| Cd200r4 (CD200 receptor 4) | 1 | no change with or without drug | 0 | -0.17 | 0.22 |
| Eya4 (EYA transcriptional coactivator and phosphatase 4) | 1 | no change with or without drug | 0.9 | 0.51 | 0.67 |
| Nln (neurolysin (metallopeptidase M3 family)) | 1 | low cell count without drug only | 0.56 | -2.19 | 2.59 |
| Itpr1 (inositol 1,4,5-trisphosphate receptor 1) | 1 | no change with or without drug | -0.34 | 0.67 | -0.67 |
| Gtf2e1 | 1 | no change with or without drug | 1.12 | 0.84 | 0.67 |
| Zscan5b (zinc finger and SCAN domain containing 5B) | 1 | no change with or without drug | -1.12 | -0.17 | -1.01 |
| Dpp8 (dipeptidylpeptidase 8) | 1 | no change with or without drug | 0.22 | 0.84 | -0.22 |
| Or10x4 (olfactory receptor family 10 subfamily X member 4) | 1 | high cell count without drug only | 1.46 | 2.02 | 0.22 |
| Clec4a3 (C-type lectin domain family 4, member a3) | 1 | no change with or without drug | 0.56 | 0.17 | 0.56 |
| Pinx1 (PIN2/TERF1 interacting, telomerase inhibitor 1) | 1 | no change with or without drug | -0.45 | -1.18 | 0.45 |
| Cdkn2d (cyclin dependent kinase inhibitor 2D) | 1 | low cell count without drug only | -1.12 | -2.19 | 0.45 |
| Ppm1b (protein phosphatase 1B, magnesium dependent, beta isoform) | 1 | no change with or without drug | -0.11 | -1.18 | 0.9 |
| Cox7a2 (cytochrome c oxidase subunit 7A2) | 1 | no change with or without drug | -0.9 | 0.51 | -1.12 |
| Serpinb1a (serine (or cysteine) peptidase inhibitor, clade B, member 1a) | 1 | no change with or without drug | 0.9 | 0.67 | 0.56 |
| Jrk (JRK helix-turn-helix protein) | 1 | no change with or without drug | 0.56 | 0.84 | 0.11 |
| Or55b4 (olfactory receptor family 55 subfamily B member 4) | 1 | no change with or without drug | -1.57 | -1.52 | -0.56 |
| Rps9 (ribosomal protein S9) | 1 | low cell count with and without drug | -7.31 | -8.43 | -3.82 |
| Coa5 (cytochrome C oxidase assembly factor 5) | 1 | no change with or without drug | 0.9 | 1.01 | 0.34 |
| Coa5 (cytochrome C oxidase assembly factor 5) | 2 | high cell count without drug only | 0.45 | 2.19 | -0.79 |
| Fam13b (family with sequence similarity 13, member B) | 1 | no change with or without drug | -0.45 | 1.18 | -1.12 |
| Traf7 (TNF receptor-associated factor 7) | 1 | low cell count with doxorubicin only (active) | -2.02 | -0.51 | -1.69 |
| Hps4 (HPS4, biogenesis of lysosomal organelles complex 3 subunit 2) | 1 | no change with or without drug | 0.67 | 1.01 | 0.11 |
| Polr2k (polymerase (RNA) II (DNA directed) polypeptide K) | 1 | low cell count with and without drug | -4.05 | -3.2 | -2.47 |
| Mia3 (MIA SH3 domain ER export factor 3) | 1 | no change with or without drug | 0 | -0.34 | 0.34 |
| Fabp3 (fatty acid binding protein 3, muscle and heart) | 1 | low cell count with doxorubicin only (active) | -2.81 | -1.01 | -2.25 |
| Vmn1r216 (vomeronasal 1 receptor 216) | 1 | no change with or without drug | 0.9 | -0.51 | 1.46 |
| Pcdh20 (protocadherin 20) | 1 | no change with or without drug | -0.11 | 0.67 | -0.45 |
| Irak1 (interleukin-1 receptor-associated kinase 1) | 1 | no change with or without drug | -0.45 | -1.01 | 0.34 |
| Zbtb26 (zinc finger and BTB domain containing 26) | 1 | no change with or without drug | -0.22 | 0.84 | -0.67 |
| Hsf3 (heat shock transcription factor 3) | 1 | no change with or without drug | 1.24 | -0.84 | 2.14 |
| Gata3 (GATA binding protein 3) | 1 | no change with or without drug | -1.12 | -1.52 | 0 |
| Phykpl (5-phosphohydroxy-L-lysine phospholyase) | 1 | no change with or without drug | -0.22 | 1.01 | -0.79 |
| Zp3 (zona pellucida glycoprotein 3) | 1 | no change with or without drug | 0.22 | -1.52 | 1.57 |
| Tmcc2 (transmembrane and coiled-coil domains 2) | 1 | low cell count without drug only | -1.57 | -2.87 | 0.56 |
| Gbp8 (guanylate-binding protein 8) | 1 | no change with or without drug | 0.45 | 0 | 0.56 |
| Srpk2 (serine/arginine-rich protein specific kinase 2) | 1 | no change with or without drug | 1.12 | 0.17 | 1.12 |
